# Laboratory results reported in PubChem BioAssay AID2551 (National Center for Advancing Translational Sciences (NCATS), 2010).
# Amino acid sequences for entries named in this document (tags omitted). A change or cut given only in a name is not applied to a line headed by its entry.
# UniProt P51450: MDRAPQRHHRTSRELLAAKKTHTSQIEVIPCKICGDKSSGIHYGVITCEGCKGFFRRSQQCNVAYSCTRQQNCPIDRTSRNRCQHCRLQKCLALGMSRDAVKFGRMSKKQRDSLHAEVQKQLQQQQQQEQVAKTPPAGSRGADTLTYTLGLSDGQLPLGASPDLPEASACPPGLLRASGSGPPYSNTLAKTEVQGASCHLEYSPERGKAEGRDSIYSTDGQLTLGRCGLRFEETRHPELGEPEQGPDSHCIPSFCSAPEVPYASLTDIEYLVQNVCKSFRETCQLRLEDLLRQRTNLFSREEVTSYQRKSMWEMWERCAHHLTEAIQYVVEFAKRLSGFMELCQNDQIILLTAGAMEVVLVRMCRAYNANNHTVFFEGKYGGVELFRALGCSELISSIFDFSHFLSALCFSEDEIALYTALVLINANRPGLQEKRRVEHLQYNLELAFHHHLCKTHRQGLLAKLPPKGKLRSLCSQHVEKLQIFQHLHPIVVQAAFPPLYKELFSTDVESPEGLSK
# Out of some 310,000 compounds screened, about 17,000 (5.5%) were called active. The shares of active, inactive and inconclusive entries below differ from those in the screen. The call rests on the fitted dose curve; in most records, active means well fitted inhibition curve with a large enough effect; inconclusive means small, poorly fitted or top-dose-only effect, or effect the other way; inactive means no such curve, though single readings can be large or run the other way. Potencies of inconclusive entries are doubtful fits and often do not repeat.
# Target: Nuclear receptor ROR-gamma (Mus musculus) (UniProt P51450)
# Assay: qHTS for inhibitors of ROR gamma transcriptional activity; further: nearly all actives have a fitted effect of over 60% in size
# Conditions: Drosophila S2 Gal4-RORgamma UAS-luciferase reporter, 20 h; activity change, negative = inhibition: at 53.6 µM (top of the series)
# Outline: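 In this cell-based reporter format, copper sulfate (700 uM final) drives Gal4–ROR gamma fusion expression from a metallothionein promoter in Drosophila Schneider cells; compounds preincubated 1 hr, reporter read after 20 hr at ambient temperature.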
# On the % scale 0 is the no-effect control and ±100 the full control effect; potency means the concentration at half of the fitted maximal effect.
Compound,Potency,"activity change, negative = inhibition"
CCOc1ccc(S(=O)(=O)N2CCCC(C(=O)NCc3ccncc3)C2)cc1Cl (centres undefined),"inconclusive: 7.08 µM [activator, partial curve]",
CC(C)(C)c1cc(CCC(=O)NCc2ccccn2)cc(C(C)(C)C)c1O,,inactive: 39.6%
O=C(Nc1nc2c(F)cccc2s1)c1ccco1,"inconclusive: 11.2 µM [inhibitor, single point]",
COc1cc(/C=C(\C#N)c2ccccn2)ccc1OCc1ccccc1,"inconclusive: 35.5 µM [activator, single point]",
COc1ccc(C2CC3(CC(C)(C)NC(=O)N3)Oc3cc(O)ccc32)cc1 (centres undefined),"inconclusive: 12.6 µM [activator, single point]",
CC1CC(C)CN(CCCNC(=O)CCC(=O)N2CCOc3ccccc32)C1 (centres undefined),,inactive: -23.1%
Cc1ccc(NC(=O)C2CCN(C(=O)NC3CCCCC3)CC2)c(C)c1,"inconclusive: 0.355 µM [inhibitor, partial curve, poor fit]",
CNC(=S)N(CCc1c(C)[nH]c2ccc(C)cc12)Cc1cc(OC)c(OC)c(OC)c1,"inconclusive: 11.2 µM [activator, partial curve]",
Cc1nc2ccccc2nc1OCc1ccc([N+](=O)[O-])cc1,,inactive: 12.2%
COC(=O)c1ccc2c(C(C)(C)O)c(C(C)(C)O)[nH]c2c1,,inactive: 44.3%
CCOC(=O)N1CCC(NC(=O)Cn2cc3c(n2)CCCCC3)CC1,"inconclusive: 0.794 µM [inhibitor, single point]",
CCOc1cccc(C2c3c(oc4cc(C)c(C)cc4c3=O)C(=O)N2CCCN(C)C)c1 (centres undefined),"inconclusive: 35.5 µM [inhibitor, single point]",
COc1ccc(C(=S)Nc2ccccc2)cc1,"inconclusive: 15.8 µM [inhibitor, single point]",
Fc1cc(F)c2nc(Nc3nc4c(F)cccc4s3)sc2c1,active: 3.98 µM,
CN1CCc2c(C#N)c(N3CCCCC3)nc(NCc3ccccc3)c2C1,"inconclusive: 10 µM [inhibitor, partial curve]",
CCOC(=O)c1nn(-c2ccc(OCC)cc2)c(C)c1C(C)=O,"inconclusive: 12.6 µM [activator, partial curve]",
O=C(CSc1ccccn1)N1CCN(c2ccc(Cl)cc2)CC1,"inconclusive: 1 µM [activator, full curve, poor fit]",
O=C(O)c1ccc(S(=O)(=O)NC2CCCc3ccccc32)cc1 (centres undefined),,inactive: 20.1%
CC(=O)c1ccc(NC(=O)N2CCN(c3cccc(Cl)c3)CC2)cc1,"inconclusive: 0.0045 µM [activator, partial curve, poor fit]",
CC(=O)OCCNc1cc(N2CCN(C)CC2)c2noc3c2c1C(=O)c1ccccc1-3,,inactive: 22.3%
S=C(NC1CCCCC1)N1CCC([C@H]2C=NC=N2)CC1,,inactive: 10.4% [at 16.9 µM]
O=C1C(Cl)=C(N2CCC(C(=O)O)CC2)C(=O)c2ccccc21,"inconclusive: 14.1 µM [inhibitor, partial curve, poor fit]",
CC(=O)c1nn(-c2cccc(C(F)(F)F)c2)c(=O)[nH]c1=O,,inactive: -2.9%
CS(=O)(=O)N1N=C(c2ccc(Br)cc2)CC1c1ccc2c(c1)OCO2 (centres undefined),"inconclusive: 8.91 µM [activator, partial curve, poor fit]",
C/C(=N\NS(=O)(=O)c1ccc(Cl)cc1)c1ccc(NC(=O)c2ccco2)cc1,"inconclusive: 7.94 µM [activator, partial curve]",

Compound,Potency,"activity change, negative = inhibition"
COc1cccc(NC(=O)Nc2ccc(Cc3ccncc3)cc2)c1,"inconclusive: 35.5 µM [activator, single point]",
CCN(CC)S(=O)(=O)c1ccc(-c2nnc3sc4cccc(C)c4n23)cc1,active: 2.24 µM,
CCCCN1Cc2cc(C(=O)c3cc(F)ccc3O)cnc2NC1=O,,inactive: 19% [at 10 µM]
Cc1cccc(S(=O)(=O)Nc2cccc3c2C(=O)c2ccccc2-3)c1,"inconclusive: 6.31 µM [inhibitor, single point]",
NC(=O)C1(N2CCCCC2)CCN(C(=O)Nc2ccccc2C(F)(F)F)CC1,,inactive: -28.6%
Cn1c(-c2c(N)n(CCCc3ccccc3)c3nc4ccccc4nc23)nc2ccccc21,active: 0.794 µM,
Cc1ccccc1CN1CCN(S(=O)(=O)c2ccc(Cl)s2)CC1,"inconclusive: 10 µM [activator, partial curve]",
C=CCNc1oc(COc2ccc(C)cc2)nc1C#N,"inconclusive: 3.16 µM [activator, full curve]",
Cc1nc(CCNC(=O)C2CCC(=O)N(Cc3cccc(F)c3)C2)sc1C (centres undefined),,inactive: -2.91%
CC(C)(C)OC(=O)N1CC23CC(c4ccc(F)cc4)C(CC2S1(=O)=O)O3 (centres undefined),,inactive: -15.2%
COc1ccc(C(=O)CC(=O)C(=O)Nc2ccccc2)cc1,"inconclusive: 11.2 µM [inhibitor, partial curve, poor fit]",
O=C(NCc1ccccc1)N1CCC(c2nc3ccccc3[nH]2)CC1,"inconclusive: 35.5 µM [inhibitor, single point]",
COc1ccc(N2CCN(C(=O)c3ccccc3F)CC2)c([N+](=O)[O-])c1,,inactive: 2.09%
CCOC(=O)c1cccnc1SC(CC)C(=O)NCc1ccco1 (centres undefined),"inconclusive: 0.158 µM [inhibitor, full curve, poor fit]",
CCc1ccc(/C=N/NC(=O)c2cc(C3CC3)nc3ccccc23)s1,active: 1.26 µM,
CC(C)C[C@@H]1NC(=O)[C@H](CO)NC(=O)c2cc([N+](=O)[O-])cc(I)c2OCC[C@@H](C(N)=O)NC1=O,,inactive: 16.3%
C/C(=N\NC(=O)CCCNc1ccc(C)cc1)c1ccccn1,active: 2.24 µM,
CN1CCN(c2ncc3ncc(=O)n(CCC#N)c3n2)CC1,,inactive: -22.3%
O=c1c(O)c(-c2ccccc2)oc2ccccc12,active: 3.98 µM,
Cc1cc(C)nc(NN=C(c2ccccc2)c2ccccc2)n1,active: 7.94 µM,
C=CCc1cc(OC)c(O)c(C(=O)NCCO)c1,,inactive: 12.2%
COc1ccc(-c2c([C@H]3[C@H]4C=CC[C@@H](C)[C@@H]4C(=O)N3Cc3ccccc3)ccc3ccccc23)cc1,,inactive: 16.1%
COc1cc(OC)c2c(C)cc(=O)oc2c1C(CCN1CCOCC1)c1ccc(N(C)C)cc1 (centres undefined),,inactive: -8.57%
Cn1c(=O)n(C)c2cc([N+](=O)[O-])c(N3CCN(CCO)CC3)cc21,,inactive: -16.9%
CCCOc1ccc(S(=O)(=O)n2cc(F)c(=O)[nH]c2=O)cc1,"inconclusive: 5.62 µM [activator, single point]",

# 18 entries from above in another layout.
Compound	Potency	activity change, negative = inhibition
C=CCNc1oc(COc2ccc(C)cc2)nc1C#N	inconclusive: 3.16 µM [activator, full curve]	
Cc1nc(CCNC(=O)C2CCC(=O)N(Cc3cccc(F)c3)C2)sc1C (centres undefined)		inactive: -2.91%
CC(C)(C)OC(=O)N1CC23CC(c4ccc(F)cc4)C(CC2S1(=O)=O)O3 (centres undefined)		inactive: -15.2%
COc1ccc(C(=O)CC(=O)C(=O)Nc2ccccc2)cc1	inconclusive: 11.2 µM [inhibitor, partial curve, poor fit]	
O=C(NCc1ccccc1)N1CCC(c2nc3ccccc3[nH]2)CC1	inconclusive: 35.5 µM [inhibitor, single point]	
COc1ccc(N2CCN(C(=O)c3ccccc3F)CC2)c([N+](=O)[O-])c1		inactive: 2.09%
CCOC(=O)c1cccnc1SC(CC)C(=O)NCc1ccco1 (centres undefined)	inconclusive: 0.158 µM [inhibitor, full curve, poor fit]	
CCc1ccc(/C=N/NC(=O)c2cc(C3CC3)nc3ccccc23)s1	active: 1.26 µM	
CC(C)C[C@@H]1NC(=O)[C@H](CO)NC(=O)c2cc([N+](=O)[O-])cc(I)c2OCC[C@@H](C(N)=O)NC1=O		inactive: 16.3%
C/C(=N\NC(=O)CCCNc1ccc(C)cc1)c1ccccn1	active: 2.24 µM	
CN1CCN(c2ncc3ncc(=O)n(CCC#N)c3n2)CC1		inactive: -22.3%
O=c1c(O)c(-c2ccccc2)oc2ccccc12	active: 3.98 µM	
Cc1cc(C)nc(NN=C(c2ccccc2)c2ccccc2)n1	active: 7.94 µM	
C=CCc1cc(OC)c(O)c(C(=O)NCCO)c1		inactive: 12.2%
COc1ccc(-c2c([C@H]3[C@H]4C=CC[C@@H](C)[C@@H]4C(=O)N3Cc3ccccc3)ccc3ccccc23)cc1		inactive: 16.1%
COc1cc(OC)c2c(C)cc(=O)oc2c1C(CCN1CCOCC1)c1ccc(N(C)C)cc1 (centres undefined)		inactive: -8.57%
Cn1c(=O)n(C)c2cc([N+](=O)[O-])c(N3CCN(CCO)CC3)cc21		inactive: -16.9%
CCCOc1ccc(S(=O)(=O)n2cc(F)c(=O)[nH]c2=O)cc1	inconclusive: 5.62 µM [activator, single point]	

# Next compounds follow.

Compound,Potency,"activity change, negative = inhibition"
CCc1ccccc1NC(=O)c1ccc2c(O)c(S(=O)(=O)c3ccc(OC)cc3)c(=O)[nH]c2c1,,inactive: -0.218%
Cc1cccc(NC(=O)c2nc[nH]c2C(=O)Nc2cccc(C)c2)c1,active: 1.41 µM,
O=C(Nc1ccc(OC(F)F)c(Cl)c1)C(c1ccccc1)c1ccccc1,"inconclusive: 31.6 µM [activator, single point]",
CC(=O)c1cccc(NC(=O)Nc2ccc3c(c2)OCO3)c1,,inactive: -41.4%
O=C(NCCOc1ccccc1)C1CCC(=O)N(CCc2ccc(Cl)cc2)C1 (centres undefined),"inconclusive: 7.08 µM [activator, partial curve]",
Oc1c(Cl)cc(Cl)cc1/C=N/c1ncn[nH]1,"inconclusive: 11.2 µM [inhibitor, partial curve, poor fit]",
Cc1ccc(Sc2ccc(C(=O)N3CCOCC3)cc2[N+](=O)[O-])cc1,,inactive: -1.58%
COC(=O)c1sc(NC(=S)NC(=O)c2cccc(Br)c2)nc1C,"inconclusive: 11.2 µM [inhibitor, partial curve]",
COc1ccc(-n2c(COc3cccc4ccccc34)nnc2SCC(=O)NCc2ccco2)cc1,"inconclusive: 12.6 µM [inhibitor, partial curve, poor fit]",
COc1cccc(C(c2nnnn2CCc2ccccc2)N2CCN(c3ccccc3)CC2)c1OC (centres undefined),,inactive: 5.4%
Cc1ccc(S(=O)(=O)N2CCCCC2)cc1NC(=O)COC(=O)Cc1cccc2ccccc12,"inconclusive: 22.4 µM [activator, single point]",
COC(=O)c1nnc(-c2ccccc2)nc1OC,"inconclusive: 12.6 µM [activator, single point]",
COc1ccc(C(=O)N2CCCC(C(=O)c3ccccc3OC)C2)cc1OC (centres undefined),,inactive: 15.3%
Cc1ccc(NC(=O)c2c(NC(=O)CCC(=O)O)sc3c2CCCCC3)cc1,,inactive: -28.7%
COc1cc(OC)cc(C(=O)N[C@H](C(=O)Nc2nc(-c3ccc(OC)c(OC)c3)cs2)C(C)C)c1,,inactive: 7.63%
Cc1c(Cl)cccc1NC(=S)NCc1ccc2c(c1)OCO2,active: 7.08 µM,
O=C(CCl)Nc1ccc(N2CCCCCC2)cc1,"inconclusive: 22.4 µM [inhibitor, single point]",
Cc1ccc(S(=O)(=O)N(CCC(=O)O)c2ccccc2)cc1,,inactive: 2.8%
Cc1ccc(C)c(NC(=O)c2ccccc2NS(=O)(=O)c2cc([N+](=O)[O-])ccc2C)c1,"inconclusive: 31.6 µM [inhibitor, single point]",
COc1cccc(C2CC(c3ccc(C)cc3)=NN2C(=O)c2ccccc2F)c1OC (centres undefined),"inconclusive: 12.6 µM [inhibitor, partial curve]",
S=C(NCCN1CCOCC1)Nc1ccc(Nc2ccccc2)cc1,"inconclusive: 22.4 µM [inhibitor, single point]",
CC(Cc1ccccc1)NC(=S)CN1CCCC1=S (centres undefined),active: 8.91 µM,
c1ccc(CC2CCN(C3=Nc4cccc5cccc3c45)CC2)cc1,"inconclusive: 35.5 µM [inhibitor, single point]",
CCN1CCc2c(C#N)c(N3CCCCC3)nc(NCc3ccccc3)c2C1,"inconclusive: 35.5 µM [inhibitor, single point]",
